The target of this assay is PI3K p85 (p85 regulatory subunit of phosphoinositide 3-kinase) (human (endogenous in A549)). The experiment in a line: co-IP; A549 cell lysates (RIPA buffer), pre-cleared with Protein A Sepharose; ENKUR antibody, PI3K p85 antibody or normal rabbit IgG overnight at 4°C, harvested with protein A Sepharose, western blot; done in both directions. A general note: A western blot detects proteins with antibodies after separation by electrophoresis.

For one molecule, binding results are on record in publication PMC6692620.

Results are given in words; binding and its absence hold for the method and conditions named. Binding seen in cells or lysates may run through a third protein. Binding calls can cover weak binding; strength is not graded here.

B1: ENKUR (Enkurin) (protein, UniProt Q8TC29 1-256)
chain: MDPTCSSECIYNLIPSDLKEPPQPPRYISIFKATVKDDMQKAKTAMKTMGPAKVEVPSPKDFLKKHSKEKTLPPKKNFDRNVPKKPAVPLKTDHPVMGIQSGKNFINTNAADIIMGVAKKPKPIYVDKRTGDKHDLEPSGLVPKYINKKDYGVTPEYICKRNEEIKKAQEDYDRYIQENLKKAAMKRLSDEEREAVLQGLKKNWEEVHKEFQSLSVFIDSIPKKIRKQRLEEEMKQLEHDIGIIEKHKIIYIANNA
B1: the binding entry is given as “binds”.
